Measured values from the supplement of paper PMC12067093, “Discovery and optimisation of a covalent ligand for TRIM25 and its application to targeted protein ubiquitination” (Chemical Science, 2025).
The other results are listed elsewhere or left out.

Key:
Assay in all cases: probe-labelled cysteine peptide fold change vs DMSO (competition) (log2 fold change); higher = less target engagement (more negative = stronger competition)
Settings in all cases: THP-1, incubation time: 4 h
[1] = target: HIVEP3_Q5T1R4_1369_GTTVCGADVHEVGPGPSGLSEEQSR (UniProt Q5T1R4)
[2] = target: HIVEP3_Q5T1R4_1756_YVCEECGIR (UniProt Q5T1R4)
[3] = target: HIVEP3_Q5T1R4_324_CSLSQSSTAQSLEDPPPFVEPSSEHPLSHKPEDTHTIK (UniProt Q5T1R4)
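Also: competitive chemoproteomic profiling in live THP-1 cells with an iodoacetamide desthiobiotin (IA-DTB) probe, comparing probe-labelled peptide intensities in compound-treated cells against DMSO-treated controls.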

With CC1Cc2ccccc2N1C(=O)C1CCCN(C(=O)CCl)C1 (mixture of isomers) [TRIM25 ligand 11 (diastereomer mixture)] the “probe-labelled cysteine peptide fold change” value ([1]; 10 µM) was 0.0463, the “probe-labelled cysteine peptide fold change” value ([1]; 50 µM) was -0.155 and the “probe-labelled cysteine peptide fold change” value ([2]; 10 µM) was 0.0586. The “probe-labelled cysteine peptide fold change” value ([2]; 50 µM) was 0.0354, the “probe-labelled cysteine peptide fold change” value ([3]; 10 µM) was 0.401 and the “probe-labelled cysteine peptide fold change” value ([3]; 50 µM) was 0.0467.
